Test results published in PubChem BioAssay AID226 (DTP/NCI, 2004).
The list shows only some results of the screen, not a fair sample: it is rich in T/C values a quarter to a half above the control, in often repeated tests (any T/C) and in doses without a T/C. Other doses and runs of a compound stand elsewhere. T/C gives the treated animals as a percentage of the vehicle group. Some entries give survivors of the animals treated and no T/C: the source holds a T/C of zero for them, seemingly a mark for toxic or unscored doses. Some survivor counts are full or nearly so, which does not show that the dose was tolerated: the source hardly ever lists a survival T/C far under the control, and the zero likely stands for such cases as well. Survivors were counted at the toxicity check, usually on the fifth day, unless a day is given; later deaths do not show. Schedule codes are those of the source, read here as Q, the interval in days (D) or hours (H), X, the number of doses. Some entries were tested several times; the values are given in rising order. Some structures stand for samples that the source files as different forms (salt, stereo form or complex); doses refer to the form tested. Where survival is the endpoint, this PubChem deposit counts one and a half times the control or more as active, and values a quarter to a half above the control carry no call in these data; other NCI protocols may use other cut-offs. Additions like (4×) stand for listed records that agree. Some T/C values are followed by the survivors on the day toxicity was checked, most often the fifth; where none is given, no animal had died by that day.

Test system: B6C3F1 mice, intracerebral ependymoblastoma, median survival T/C
Test: NCI In Vivo Anticancer Drug Screen. Data for tumor model Ependymoblastoma (intracerebral) in B6C3F1 mice
Settings: T/C endpoint: median survival time, higher T/C = longer survival
Method: The antitumor activity of compounds was measured in mice bearing transplantable tumors. Survival or tumor size were measured and the results are expressed as the measurement made in the treated group (T) divided by the measurement made in the vehicle treated control group (C). The tumor model used in this assay is Ependymoblastoma (intracerebral) in B6C3F1 mice

[1] = dose: 50.0 mg/kg/injection, schedule: Q01DX005 (ip), vehicle: saline with Tween-80
[2] = dose: 50.0 mg/kg/injection, schedule: Q01DX009 (ip), vehicle: saline
[3] = dose: 100.0 mg/kg/injection, schedule: Q01DX005 (ip), vehicle: saline with Tween-80
[4] = dose: 16.0 mg/kg/injection, schedule: Q01DX005 (ip), vehicle: saline with Tween-80
[5] = dose: 32.0 mg/kg/injection, schedule: Q01DX005 (ip), vehicle: saline with Tween-80
[6] = dose: 64.0 mg/kg/injection, schedule: Q01DX005 (ip), vehicle: saline with Tween-80
[7] = dose: 256.0 mg/kg/injection, schedule: Q01DX005 (ip), vehicle: saline
[8] = dose: 512.0 mg/kg/injection, schedule: Q01DX001 (ip), vehicle: saline

Q: How did the T/C (dose: 1.25 mg/kg/injection, schedule: Q01DX005 (ip), vehicle: saline) turn out when `Cc1nc(N)nc(N)c1-c1ccc(Cl)c(Cl)c1` was run?
A: The T/C was 127 % of control.

Q: What about the T/C (dose: 2.5 mg/kg/injection, schedule: Q01DX005 (ip), vehicle: saline) of the same molecule?
A: Its T/C is 138 % of control [9 of 10 alive].

Q: What about the survivor count (dose: 5.0 mg/kg/injection, schedule: Q01DX005 (ip), vehicle: saline) of the same molecule?
A: Its survivor count is 10 of 10.

Q: And the survivor count (dose: 10.0 mg/kg/injection, schedule: Q01DX005 (ip), vehicle: saline)?
A: Its survivor count is 9 of 10 and 10 of 10.

Q: And the survivor count (dose: 20.0 mg/kg/injection, schedule: Q01DX005 (ip), vehicle: saline)?
A: Its survivor count is 10 of 10.

Q: What about the survivor count (dose: 40.0 mg/kg/injection, schedule: Q01DX005 (ip), vehicle: saline) of the same molecule?
A: Its survivor count is 8 of 10 and 9 of 10.

Q: `NC(=S)Nc1cccc2ccccc12` was tested. Which survivor count (dose: 12.5 mg/kg/injection, schedule: Q01DX005 (ip), vehicle: saline with Tween-80) did it give?
A: The survivor count was 6 of 10.

Q: What about the survivor count [1] of the same molecule?
A: Its survivor count is 2 of 10.

Q: Which T/C (dose: 80.0 mg/kg/injection, schedule: Q01DX001 (ip), vehicle: Klucel (hydroxypropylcellulose) (HPC)) does the source give for `O=P1(NCCCl)OCCC(OO)N1CCCl` (stereo unspecified) here?
A: Its T/C is 137 % of control.

Q: What about the T/C (dose: 160.0 mg/kg/injection, schedule: Q01DX001 (ip), vehicle: Klucel (hydroxypropylcellulose) (HPC)) of the same molecule?
A: The T/C was 125 % of control (2×).

Q: And the T/C (dose: 320.0 mg/kg/injection, schedule: Q01DX001 (ip), vehicle: Klucel (hydroxypropylcellulose) (HPC))?
A: Its T/C is 125 % of control.

Q: `O=c1n(CC2CO2)c(=O)n(CC2CO2)c(=O)n1CC1CO1` (stereo unspecified) was tested. Which T/C (dose: 30.0 mg/kg/injection, schedule: Q01DX009 (ip), vehicle: saline) did it give?
A: The T/C was 134 % of control.

Q: And the T/C (dose: 40.0 mg/kg/injection, schedule: Q01DX004 (ip), vehicle: saline)?
A: The T/C was 125 % of control.

Q: What about the T/C (dose: 40.0 mg/kg/injection, schedule: Q01DX009 (ip), vehicle: saline) of the same molecule?
A: Its T/C is 128 % of control.

Q: What about the survivor count (dose: 50.0 mg/kg/injection, schedule: Q01DX004 (ip), vehicle: saline) of the same molecule?
A: Its survivor count is 8 of 8.

Q: And the T/C [1]?
A: Its T/C is 127 % of control.

Q: What about the T/C [2] of the same molecule?
A: Its T/C is 129 % of control [8 of 10 alive].

Q: And the survivor count [2]?
A: The survivor count was 8 of 8.

Q: And the survivor count [3]?
A: The survivor count was 7 of 10.

Q: What about the T/C (dose: 100.0 mg/kg/injection, schedule: Q01DX009 (ip), vehicle: saline) of the same molecule?
A: Its T/C is 146 and 149 % of control.

Q: And the survivor count (dose: 200.0 mg/kg/injection, schedule: Q01DX005 (ip), vehicle: saline with Tween-80)?
A: Its survivor count is 0 of 10.

Q: With `CCCN(C)/N=N/c1nc[nH]c1C(N)=O` as the molecule, how does the T/C [4] read?
A: The T/C was 130 % of control.

Q: And the T/C [5]?
A: The T/C was 137 % of control.

Q: What about the T/C [6] of the same molecule?
A: The T/C was 144 % of control.

Q: Which survivor count [3] does the source give for `Nc1nc(=S)c2ncn(C3OC(COC(=O)c4ccccc4)C(OC(=O)c4ccccc4)C3OC(=O)c3ccccc3)c2[nH]1` (stereo unspecified) here?
A: Its survivor count is 10 of 10.

Q: How did the survivor count (dose: 8.0 mg/kg/injection, schedule: Q01DX005 (ip), vehicle: saline with Tween-80) turn out when `Nc1nc(=S)c2ncn(C3CC(O)C(CO)O3)c2[nH]1` (stereo unspecified) was run?
A: The survivor count was 10 of 10.

Q: And the survivor count [4]?
A: Its survivor count is 10 of 10.

Q: For `CC(=O)OCC1OC(n2cnc3c(=S)nc(N)[nH]c32)C(OC(C)=O)C1OC(C)=O` (stereo unspecified), which T/C (dose: 12.5 mg/kg/injection, schedule: Q01DX005 (ip), vehicle: saline) is on record?
A: Its T/C is 125 % of control.

Q: What about the survivor count (dose: 25.0 mg/kg/injection, schedule: Q01DX005 (ip), vehicle: saline) of the same molecule?
A: Its survivor count is 10 of 10.

Q: And the survivor count (dose: 50.0 mg/kg/injection, schedule: Q01DX005 (ip), vehicle: saline)?
A: Its survivor count is 10 of 10.

Q: With `O=NN(CCCl)C(=O)NC1CCN(Cc2ccccc2)CC1` as the molecule, how does the T/C (dose: 25.0 mg/kg/injection, schedule: Q01DX001 (ip), vehicle: water) read?
A: Its T/C is 136 % of control.

Q: What about the survivor count (dose: 200.0 mg/kg/injection, schedule: Q01DX001 (ip), vehicle: water) of the same molecule?
A: Its survivor count is 10 of 10.

Q: What does the source list for `CNc1nc(N(C)C)nc(N(C)C)n1`?
A: survivor count (dose: 32.0 mg/kg/injection, schedule: Q01DX005 (ip), vehicle: saline): 7 of 10; survivor count [7]: 2 of 10

Q: What does the source list for `O=C1c2ccccc2C(=O)c2c(NCCNCCO)ccc(NCCNCCO)c21`?
A: survivor count [5]: 10 of 10; survivor count [6]: 8 of 10; survivor count (dose: 64.0 mg/kg/injection, schedule: Q04DX003 (ip), vehicle: water): 10 of 10; survivor count (dose: 128.0 mg/kg/injection, schedule: Q04DX003 (ip), vehicle: water): 3 of 10

Q: What does the source list for `NC(=O)c1csc(C2OC(CO)C(O)C2O)n1` (stereo unspecified)?
A: T/C (dose: 300.0 mg/kg/injection, schedule: Q01DX009 (ip), vehicle: saline): 137 % of control; T/C (dose: 600.0 mg/kg/injection, schedule: Q01DX009 (ip), vehicle: saline): 132 % of control

Q: Which survivor count (dose: 6000.0 mg/kg/injection, schedule: Q04DX003 (ip), vehicle: saline with Tween-80) does the source give for `Cc1cn(C2CC(O)C(CO)O2)c(=O)[nH]c1=O` (stereo unspecified) here?
A: Its survivor count is 4 of 10 on day 6.

Q: And the survivor count (dose: 6400.0 mg/kg/injection, schedule: Q01DX005 (ip), vehicle: saline with Tween-80)?
A: The survivor count was 7 of 10.

Q: Which T/C (dose: 32.0 mg/kg/injection, schedule: Q01DX001 (ip), vehicle: saline with Tween-80) does the source give for `CC/C(=C(/CC)c1ccc(O)cc1)c1ccc(O)cc1` here?
A: Its T/C is 95 [survivors not given], 99, 99 [survivors not given], 103 % of control [survivors not given].

Q: What about the T/C (dose: 64.0 mg/kg/injection, schedule: Q01DX001 (ip), vehicle: saline with Tween-80) of the same molecule?
A: Its T/C is 89 [survivors not given], 101 [survivors not given], 103, 106 % of control [survivors not given].

Q: What about the T/C (dose: 128.0 mg/kg/injection, schedule: Q01DX001 (ip), vehicle: saline with Tween-80) of the same molecule?
A: The T/C was 99 [survivors not given], 100 [survivors not given], 102 [survivors not given], 104 % of control.

Q: And the T/C (dose: 256.0 mg/kg/injection, schedule: Q01DX001 (ip), vehicle: saline with Tween-80)?
A: Its T/C is 91 [survivors not given], 94, 96 [survivors not given], 111 % of control [survivors not given].

Q: Which survivor count (dose: 100.0 mg/kg/injection, schedule: Q01DX005 (ip), vehicle: saline) does the source give for `COc1ccc2c(c1OC(C)=O)-c1cc(OC(C)=O)cc3c1C(C2)N(C(=O)CBr)CC3` (stereo unspecified) here?
A: Its survivor count is 6 of 10.

Q: Which results are given for `O=[N+]([O-])O.[Ga]`?
A: T/C (dose: 64.0 mg/kg/injection, schedule: Q01DX001 (ip), vehicle: saline): 95 [survivors not given], 103, 106 [survivors not given], 113 % of control [survivors not given]; T/C (dose: 128.0 mg/kg/injection, schedule: Q01DX001 (ip), vehicle: saline): 100 [survivors not given], 105, 106 [survivors not given], 113 % of control [survivors not given]; T/C (dose: 256.0 mg/kg/injection, schedule: Q01DX001 (ip), vehicle: saline): 99, 99 [survivors not given], 104 % of control [survivors not given]; survivor count [7]: 5 of 10; T/C [8]: 93 [survivors not given] and 100 % of control [survivors not given]; survivor count [8]: 5 of 10

Q: With `O=C1NC(c2ccc(Cl)cc2)(c2ccc(Cl)cc2)C(=O)N1Cl` as the molecule, how does the survivor count (dose: 100.0 mg/kg/injection, schedule: Q01DX009 (ip), vehicle: saline with Tween-80) read?
A: The survivor count was 2 of 10.

Q: What about the survivor count (dose: 200.0 mg/kg/injection, schedule: Q01DX009 (ip), vehicle: saline with Tween-80) of the same molecule?
A: The survivor count was 1 of 10.

Q: How did the T/C [6] turn out when `CCCCN(C)N=Nc1ccc([N+](=O)[O-])cc1C(N)=O` was run?
A: The T/C was 141 % of control.

Q: What about the survivor count (dose: 512.0 mg/kg/injection, schedule: Q01DX005 (ip), vehicle: saline with Tween-80) of the same molecule?
A: The survivor count was 7 of 10.

Q: Which results are given for `O=C1C(NCCO)=C(N2CC2)C(=O)C(NCCO)=C1N1CC1`?
A: T/C (dose: 0.5 mg/kg/injection, schedule: Q01DX005 (ip), vehicle: saline): 133 % of control; T/C (dose: 1.0 mg/kg/injection, schedule: Q01DX005 (ip), vehicle: saline): 142 % of control; survivor count (dose: 2.0 mg/kg/injection, schedule: Q01DX005 (ip), vehicle: saline): 10 of 10; survivor count (dose: 3.0 mg/kg/injection, schedule: Q01DX005 (ip), vehicle: saline): 10 of 10
